Laboratory results as given in patent US7056679.
Results are given in words; binding and its absence hold for the method and conditions named. Some results given as binding are weak or reduced against the parent protein; the word gives no strength.

Amino acid sequences for entries named in this document (tags omitted).
UniProt Q15004: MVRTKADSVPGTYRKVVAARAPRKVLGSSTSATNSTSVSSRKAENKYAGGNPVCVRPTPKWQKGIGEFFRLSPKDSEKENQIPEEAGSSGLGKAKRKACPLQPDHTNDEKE

Target: DGI-2 (UniProt Q15004)
Test: phage ELISA, coated DGI-2

Binder | binding
LQIVRPAGWKMPGQVGYYIG [DGI-2-20R-3-A9] | binds
GLYRRAGDASVGFSRWGRFDCQVYFSVECLLGSSWGGYS [DGI-2-40F-4-F12] | binds
